Measurements reported in the supplement of paper PMC12823440, “Inhibitors supercharge kinase turnover through native proteolytic circuits” (Nature, 2025).
Where a name gives a salt, the structure may show the parent alone. The list shows a part of the results. Hit calls seldom repeat between salt and free forms of one compound.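 In K562 cells expressing nanoluciferase-fused kinases, luminescence was recorded at 4 h intervals between 2 and 18 h, normalized as percent of control with DMSO at 100% and a positive control at 0%. A significant (2 sigma) signal drop marks a time point as decreased. The authors' rule for a hit is not shown and takes in more than the number of time points.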

Chains of the proteins cited; added tags and fusions are not shown. Lines headed by an entry give the natural chain unless they say otherwise; changes in a name come on top.
UniProt P50613: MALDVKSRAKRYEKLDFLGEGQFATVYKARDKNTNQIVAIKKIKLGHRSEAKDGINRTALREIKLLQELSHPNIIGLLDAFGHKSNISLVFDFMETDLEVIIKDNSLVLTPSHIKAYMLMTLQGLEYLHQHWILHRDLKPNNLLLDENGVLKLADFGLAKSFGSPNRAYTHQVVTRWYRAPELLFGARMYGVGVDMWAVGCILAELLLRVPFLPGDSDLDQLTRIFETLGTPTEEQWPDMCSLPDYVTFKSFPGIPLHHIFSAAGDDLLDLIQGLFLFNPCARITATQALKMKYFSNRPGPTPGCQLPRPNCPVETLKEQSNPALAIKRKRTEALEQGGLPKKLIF
UniProt P50750, whole entry: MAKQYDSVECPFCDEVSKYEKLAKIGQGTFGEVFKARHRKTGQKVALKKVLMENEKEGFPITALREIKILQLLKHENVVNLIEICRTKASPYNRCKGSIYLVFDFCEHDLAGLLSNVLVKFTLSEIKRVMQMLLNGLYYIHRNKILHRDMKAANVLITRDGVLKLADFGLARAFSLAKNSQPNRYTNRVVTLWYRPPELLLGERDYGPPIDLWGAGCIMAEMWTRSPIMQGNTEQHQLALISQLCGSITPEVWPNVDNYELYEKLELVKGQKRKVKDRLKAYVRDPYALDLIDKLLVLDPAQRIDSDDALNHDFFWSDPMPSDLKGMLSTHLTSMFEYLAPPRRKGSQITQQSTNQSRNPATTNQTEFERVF
UniProt O96017, whole entry: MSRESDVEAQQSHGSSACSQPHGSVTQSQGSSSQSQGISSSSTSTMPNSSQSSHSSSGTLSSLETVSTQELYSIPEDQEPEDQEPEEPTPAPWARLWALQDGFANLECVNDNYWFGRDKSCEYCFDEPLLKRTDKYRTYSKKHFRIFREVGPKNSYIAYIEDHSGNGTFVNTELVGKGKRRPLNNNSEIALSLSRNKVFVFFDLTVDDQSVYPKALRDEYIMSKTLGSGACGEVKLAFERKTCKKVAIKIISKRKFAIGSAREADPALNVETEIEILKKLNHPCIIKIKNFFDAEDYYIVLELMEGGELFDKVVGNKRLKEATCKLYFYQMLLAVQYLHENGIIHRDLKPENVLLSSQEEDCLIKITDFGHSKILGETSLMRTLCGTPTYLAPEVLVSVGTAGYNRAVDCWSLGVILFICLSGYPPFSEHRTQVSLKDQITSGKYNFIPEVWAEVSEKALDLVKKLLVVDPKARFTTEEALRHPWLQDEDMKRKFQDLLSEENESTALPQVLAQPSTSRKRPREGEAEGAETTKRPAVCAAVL
UniProt P07333, whole entry: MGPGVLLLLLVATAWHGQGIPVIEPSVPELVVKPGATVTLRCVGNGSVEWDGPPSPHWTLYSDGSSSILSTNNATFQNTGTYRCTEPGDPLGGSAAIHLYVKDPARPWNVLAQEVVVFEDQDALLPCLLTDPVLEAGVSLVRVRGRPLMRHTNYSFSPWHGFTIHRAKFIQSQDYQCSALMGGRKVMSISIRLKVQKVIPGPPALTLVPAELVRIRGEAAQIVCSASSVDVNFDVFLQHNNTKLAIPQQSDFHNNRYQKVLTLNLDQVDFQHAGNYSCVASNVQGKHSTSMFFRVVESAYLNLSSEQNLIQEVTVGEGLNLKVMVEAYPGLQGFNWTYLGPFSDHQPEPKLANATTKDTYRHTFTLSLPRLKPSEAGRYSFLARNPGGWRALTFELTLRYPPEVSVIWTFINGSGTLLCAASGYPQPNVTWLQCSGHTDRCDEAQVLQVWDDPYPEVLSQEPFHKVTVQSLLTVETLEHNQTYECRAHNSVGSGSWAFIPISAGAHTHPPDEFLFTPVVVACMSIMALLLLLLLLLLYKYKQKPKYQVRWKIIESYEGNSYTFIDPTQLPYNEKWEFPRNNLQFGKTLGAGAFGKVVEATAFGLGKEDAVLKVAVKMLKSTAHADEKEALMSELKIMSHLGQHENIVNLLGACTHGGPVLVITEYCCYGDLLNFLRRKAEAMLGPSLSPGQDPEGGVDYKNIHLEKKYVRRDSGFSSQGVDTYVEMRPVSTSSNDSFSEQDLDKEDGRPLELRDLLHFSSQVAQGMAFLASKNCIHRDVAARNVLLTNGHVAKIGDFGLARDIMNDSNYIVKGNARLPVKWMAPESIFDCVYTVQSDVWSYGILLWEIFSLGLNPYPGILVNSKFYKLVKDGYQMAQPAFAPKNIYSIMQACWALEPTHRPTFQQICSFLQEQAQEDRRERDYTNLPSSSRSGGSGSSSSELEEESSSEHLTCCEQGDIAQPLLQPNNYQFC
UniProt P41240: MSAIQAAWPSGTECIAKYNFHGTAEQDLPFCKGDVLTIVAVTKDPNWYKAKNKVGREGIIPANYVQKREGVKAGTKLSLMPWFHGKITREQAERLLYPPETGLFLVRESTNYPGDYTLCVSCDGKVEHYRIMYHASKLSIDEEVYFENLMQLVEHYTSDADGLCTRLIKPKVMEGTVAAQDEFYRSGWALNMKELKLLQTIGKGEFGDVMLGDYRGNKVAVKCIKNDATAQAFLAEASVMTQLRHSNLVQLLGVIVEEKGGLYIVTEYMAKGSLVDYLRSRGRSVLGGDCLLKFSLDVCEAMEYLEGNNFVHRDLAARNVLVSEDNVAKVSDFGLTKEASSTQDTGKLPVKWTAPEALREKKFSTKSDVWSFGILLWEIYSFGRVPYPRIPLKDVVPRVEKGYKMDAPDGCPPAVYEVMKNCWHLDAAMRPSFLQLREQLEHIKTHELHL
UniProt P48729: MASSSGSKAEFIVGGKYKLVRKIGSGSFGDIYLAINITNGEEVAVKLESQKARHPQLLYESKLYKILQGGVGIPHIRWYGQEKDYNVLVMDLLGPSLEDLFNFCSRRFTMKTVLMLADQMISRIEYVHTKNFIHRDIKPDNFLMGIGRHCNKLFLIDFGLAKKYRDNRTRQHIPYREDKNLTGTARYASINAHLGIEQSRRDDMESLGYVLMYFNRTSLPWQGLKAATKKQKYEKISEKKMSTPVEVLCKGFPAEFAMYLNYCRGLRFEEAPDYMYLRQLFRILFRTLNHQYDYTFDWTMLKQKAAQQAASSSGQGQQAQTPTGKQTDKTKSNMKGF
UniProt P48730: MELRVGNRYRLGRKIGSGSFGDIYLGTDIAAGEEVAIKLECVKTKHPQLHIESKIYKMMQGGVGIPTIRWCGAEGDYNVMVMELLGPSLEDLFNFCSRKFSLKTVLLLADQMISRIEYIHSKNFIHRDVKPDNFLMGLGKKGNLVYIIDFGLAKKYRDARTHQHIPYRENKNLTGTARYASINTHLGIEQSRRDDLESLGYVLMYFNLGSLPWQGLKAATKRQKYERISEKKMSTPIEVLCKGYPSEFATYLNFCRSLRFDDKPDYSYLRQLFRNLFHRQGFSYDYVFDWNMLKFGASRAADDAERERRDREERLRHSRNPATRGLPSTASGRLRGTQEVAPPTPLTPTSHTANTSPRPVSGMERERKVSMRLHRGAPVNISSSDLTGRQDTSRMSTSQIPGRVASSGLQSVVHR
UniProt Q08345: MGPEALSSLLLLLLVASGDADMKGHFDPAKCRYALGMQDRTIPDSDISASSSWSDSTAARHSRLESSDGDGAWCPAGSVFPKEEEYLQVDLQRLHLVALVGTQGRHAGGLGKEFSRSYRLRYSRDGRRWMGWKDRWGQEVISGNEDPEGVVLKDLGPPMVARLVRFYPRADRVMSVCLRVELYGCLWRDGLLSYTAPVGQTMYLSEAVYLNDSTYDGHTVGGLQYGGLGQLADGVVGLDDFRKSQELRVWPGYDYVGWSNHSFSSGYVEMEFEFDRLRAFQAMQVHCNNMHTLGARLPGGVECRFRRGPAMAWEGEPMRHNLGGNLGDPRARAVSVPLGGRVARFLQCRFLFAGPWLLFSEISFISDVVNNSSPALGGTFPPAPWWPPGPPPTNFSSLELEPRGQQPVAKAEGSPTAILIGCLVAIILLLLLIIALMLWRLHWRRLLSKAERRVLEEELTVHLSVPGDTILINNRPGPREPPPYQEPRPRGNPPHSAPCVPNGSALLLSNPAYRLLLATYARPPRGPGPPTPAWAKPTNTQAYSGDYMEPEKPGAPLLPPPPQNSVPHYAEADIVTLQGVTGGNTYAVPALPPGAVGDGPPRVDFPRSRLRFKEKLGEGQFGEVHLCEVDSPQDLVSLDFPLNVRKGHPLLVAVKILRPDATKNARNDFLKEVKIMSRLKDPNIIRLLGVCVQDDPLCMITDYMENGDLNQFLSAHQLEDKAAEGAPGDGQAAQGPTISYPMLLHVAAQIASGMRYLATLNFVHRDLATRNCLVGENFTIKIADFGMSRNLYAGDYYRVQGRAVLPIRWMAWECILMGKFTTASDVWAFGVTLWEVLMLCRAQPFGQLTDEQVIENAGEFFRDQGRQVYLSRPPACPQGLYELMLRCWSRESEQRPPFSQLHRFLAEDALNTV
UniProt Q9Y463, whole entry, looked up: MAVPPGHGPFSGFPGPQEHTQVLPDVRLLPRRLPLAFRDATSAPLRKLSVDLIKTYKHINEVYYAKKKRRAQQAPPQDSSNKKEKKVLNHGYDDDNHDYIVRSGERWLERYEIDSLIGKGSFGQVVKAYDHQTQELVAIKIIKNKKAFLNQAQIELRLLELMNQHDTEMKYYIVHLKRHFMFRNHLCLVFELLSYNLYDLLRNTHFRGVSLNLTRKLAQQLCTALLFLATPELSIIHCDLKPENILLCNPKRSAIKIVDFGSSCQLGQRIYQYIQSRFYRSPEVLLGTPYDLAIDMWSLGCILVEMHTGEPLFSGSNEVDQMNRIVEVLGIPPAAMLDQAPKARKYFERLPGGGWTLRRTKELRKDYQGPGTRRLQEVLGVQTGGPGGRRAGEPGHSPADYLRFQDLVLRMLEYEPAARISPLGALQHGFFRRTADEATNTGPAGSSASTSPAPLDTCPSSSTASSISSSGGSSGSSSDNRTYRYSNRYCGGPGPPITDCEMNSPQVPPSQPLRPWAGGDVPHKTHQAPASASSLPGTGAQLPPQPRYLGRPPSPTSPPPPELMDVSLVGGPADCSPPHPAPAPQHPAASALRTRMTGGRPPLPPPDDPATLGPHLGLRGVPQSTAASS
UniProt Q92630: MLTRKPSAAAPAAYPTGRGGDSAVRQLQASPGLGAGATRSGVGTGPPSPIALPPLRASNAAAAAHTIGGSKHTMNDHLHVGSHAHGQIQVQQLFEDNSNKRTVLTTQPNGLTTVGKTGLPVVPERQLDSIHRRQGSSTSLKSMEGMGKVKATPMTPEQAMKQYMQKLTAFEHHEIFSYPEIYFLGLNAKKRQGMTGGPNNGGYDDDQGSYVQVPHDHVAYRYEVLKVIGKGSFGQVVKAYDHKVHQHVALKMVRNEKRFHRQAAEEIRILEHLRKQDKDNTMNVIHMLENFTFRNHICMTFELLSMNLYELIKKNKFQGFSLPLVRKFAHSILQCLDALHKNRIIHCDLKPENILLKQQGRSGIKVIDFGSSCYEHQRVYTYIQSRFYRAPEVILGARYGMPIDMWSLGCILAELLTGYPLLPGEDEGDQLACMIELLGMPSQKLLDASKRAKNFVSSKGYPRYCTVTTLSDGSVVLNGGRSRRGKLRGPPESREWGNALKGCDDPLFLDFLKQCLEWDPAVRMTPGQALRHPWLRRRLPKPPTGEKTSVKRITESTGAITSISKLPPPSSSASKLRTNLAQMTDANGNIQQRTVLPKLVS

Experiments:
Assay in all cases: kinase-Nluc reporter destabilization hit call (1 = scored as downregulated) (binary); higher = compound decreases kinase abundance
Conditions in all cases: K562; 2-18 h
CDK7 = CDK7 (UniProt P50613)
CDK9 = CDK9 (UniProt P50750)
CHEK2 = CHEK2 (UniProt O96017)
CSF1R = CSF1R (UniProt P07333)
CSK = CSK (UniProt P41240)
CSNK1A1 = CSNK1A1 (UniProt P48729)
CSNK1D = CSNK1D (UniProt P48730)
DDR1 = DDR1 (UniProt Q08345)
DYRK1B = DYRK1B (UniProt Q9Y463)
DYRK2 = DYRK2 (UniProt Q92630)

Row | SMILES | kinase-Nluc reporter destabilization hit call (CDK7) | kinase-Nluc reporter destabilization hit call (CDK9) | kinase-Nluc reporter destabilization hit call (CHEK2) | kinase-Nluc reporter destabilization hit call (CSF1R) | kinase-Nluc reporter destabilization hit call (CSK) | kinase-Nluc reporter destabilization hit call (CSNK1A1) | kinase-Nluc reporter destabilization hit call (CSNK1D) | kinase-Nluc reporter destabilization hit call (DDR1) | kinase-Nluc reporter destabilization hit call (DYRK1B) | kinase-Nluc reporter destabilization hit call (DYRK2)
1 | C=CC(=O)N1CC[C@H](n2nc(C#Cc3cc(OC)cc(OC)c3)c3c(N)ncnc32)C1 [Futibatinib] (10 µM) | inactive: 0 | inactive: 0 | inactive: 0 | inactive: 0 | inactive: 0 | inactive: 0 | inactive: 0 | inactive: 0 | inactive: 0 | inactive: 0
2 | CN1CCC(Nc2ncc3ncnc(Nc4ccc(F)c(Cl)c4)c3n2)CC1 [Falnidamol] (10 µM) | inactive: 0 | inactive: 0 | inactive: 0 | inactive: 0 | inactive: 0 | inactive: 0 | inactive: 0 | inactive: 0 | inactive: 0 | inactive: 0
3 | Cc1cc(F)c(C(=O)Nc2cccc(-c3nncn3C(C)C)n2)cc1-n1cnc(C2CC2)c1 [Selonsertib] (10 µM) | inactive: 0 | inactive: 0 | inactive: 0 | inactive: 0 | inactive: 0 | inactive: 0 | inactive: 0 | inactive: 0 | inactive: 0 | inactive: 0
4 | CCn1c(=O)c2cc(C(N)=O)c(N)nc2n(C2CC2)c1=O (10 µM) | inactive: 0 | inactive: 0 | inactive: 0 | inactive: 0 | inactive: 0 | inactive: 0 | inactive: 0 | inactive: 0 | inactive: 0 | inactive: 0
5 | CN1CCN(c2ccc(Nc3cc(-c4cccc(-n5ccc6cc(C7CC7)cc(F)c6c5=O)c4CO)cn(C)c3=O)nc2)CC1 (2.5 µM) | inactive: 0 | inactive: 0 | inactive: 0 | inactive: 0 | inactive: 0 | inactive: 0 | inactive: 0 | inactive: 0 | inactive: 0 | inactive: 0
6 | Cc1cc(C(=O)Nc2cccc(C(=O)Nc3cccc(C(F)(F)F)c3)c2)on1 (10 µM) | inactive: 0 | inactive: 0 | inactive: 0 | inactive: 0 | inactive: 0 | inactive: 0 | inactive: 0 | inactive: 0 | inactive: 0 | inactive: 0
7 | C[C@]1(O)C[C@@H](c2nc(-c3ccc4ccc(-c5ccccc5)nc4c3)c3c(N)nccn32)C1 [Linsitinib] (2.5 µM) | inactive: 0 | inactive: 0 | inactive: 0 | inactive: 0 | inactive: 0 | inactive: 0 | inactive: 0 | inactive: 0 | inactive: 0 | inactive: 0
8 | CCN1CCN(c2ccc(Nc3cc(N(C)C(=O)Nc4c(Cl)c(OC)cc(OC)c4Cl)ncn3)cc2)CC1 [Infigratinib] (10 µM) | inactive: 0 | inactive: 0 | inactive: 0 | inactive: 0 | inactive: 0 | inactive: 0 | inactive: 0 | inactive: 0 | inactive: 0 | inactive: 0
9 | CN(C)C[C@@H]1CCn2cc(c3ccccc32)C2=C(C(=O)NC2=O)c2cn(c3ccccc23)CCO1 [Ruboxistaurin (hydrochloride)] (10 µM) | inactive: 0 | inactive: 0 | inactive: 0 | inactive: 0 | inactive: 0 | inactive: 0 | inactive: 0 | inactive: 0 | inactive: 0 | inactive: 0
10 | CN1CCN(S(=O)(=O)c2ccc(-c3cnc(N)c(C(=O)Nc4cccnc4)n3)cc2)CC1 (10 µM) | inactive: 0 | inactive: 0 | inactive: 0 | inactive: 0 | inactive: 0 | inactive: 0 | inactive: 0 | inactive: 0 | inactive: 0 | inactive: 0
11 | COCc1c(-c2ccc(NC(=O)Nc3cc(C(F)(F)F)ccc3F)c(F)c2)c2c(N)ncnn2c1CN1CCOCC1 (2.5 µM) | inactive: 0 | inactive: 0 | inactive: 0 | inactive: 0 | inactive: 0 | inactive: 0 | inactive: 0 | inactive: 0 | inactive: 0 | inactive: 0
12 | COc1cc2ncnc(Nc3cccc(Cl)c3F)c2cc1OC(=O)N1CCN(C)C[C@H]1C [Zorifertinib] (10 µM) | inactive: 0 | inactive: 0 | inactive: 0 | inactive: 0 | inactive: 0 | inactive: 0 | inactive: 0 | inactive: 0 | inactive: 0 | inactive: 0
13 | Cc1cc(N2CCOCC2)cc2[nH]c(-c3c(NC[C@@H](O)c4cccc(Cl)c4)cc[nH]c3=O)nc12 (10 µM) | inactive: 0 | inactive: 0 | inactive: 0 | inactive: 0 | inactive: 0 | inactive: 0 | inactive: 0 | inactive: 0 | inactive: 0 | inactive: 0
14 | Cc1ccc2c(Nc3cccc(OC(F)(F)F)c3)nccc2c1Nc1ncccc1-c1ncnc2[nH]cnc12 (10 µM) | inactive: 0 | inactive: 0 | inactive: 0 | inactive: 0 | inactive: 0 | inactive: 0 | inactive: 0 | inactive: 0 | inactive: 0 | inactive: 0
15 | CNC(=O)c1cc(Oc2ccc(NC(=O)Nc3cc(C(C)(C)C)nn3-c3ccc4ncccc4c3)c(F)c2)ccn1 [Rebastinib] (2.5 µM) | active: 1 | active: 1 | inactive: 0 | inactive: 0 | inactive: 0 | inactive: 0 | inactive: 0 | inactive: 0 | inactive: 0 | inactive: 0
16 | NS(=O)(=O)c1ccc(Nc2nc(OCC3CCCCC3)c3[nH]cnc3n2)cc1 (10 µM) | inactive: 0 | inactive: 0 | inactive: 0 | inactive: 0 | inactive: 0 | inactive: 0 | inactive: 0 | inactive: 0 | inactive: 0 | inactive: 0
17 | CC(C)c1ccc2oc3nc(N)c(C(=O)O)cc3c(=O)c2c1 [Amlexanox] (10 µM) | inactive: 0 | inactive: 0 | inactive: 0 | inactive: 0 | inactive: 0 | inactive: 0 | inactive: 0 | inactive: 0 | inactive: 0 | inactive: 0
18 | Cc1c[nH]c2nccc(Oc3c(F)cc(Nc4cc(Cl)nc(N)n4)cc3F)c12 (10 µM) | inactive: 0 | inactive: 0 | inactive: 0 | inactive: 0 | inactive: 0 | inactive: 0 | inactive: 0 | inactive: 0 | inactive: 0 | inactive: 0
19 | O=C(O)CCNC(=O)c1ccc(/N=N/c2ccc(O)c(C(=O)O)c2)cc1 [Balsalazide] (10 µM) | inactive: 0 | inactive: 0 | inactive: 0 | inactive: 0 | inactive: 0 | inactive: 0 | inactive: 0 | inactive: 0 | inactive: 0 | inactive: 0
20 | COc1cc(C)c(Sc2cnc(NC(=O)c3ccc(CNC(C)C(C)(C)C)cc3)s2)cc1C(=O)N1CCN(C(C)=O)CC1 (stereo not given) (2.5 µM) | inactive: 0 | inactive: 0 | inactive: 0 | inactive: 0 | inactive: 0 | inactive: 0 | inactive: 0 | inactive: 0 | inactive: 0 | inactive: 0
21 | COc1ccc(F)c(F)c1C(=O)c1cnc(NC2CCN(S(C)(=O)=O)CC2)nc1N (2.5 µM) | inactive: 0 | inactive: 0 | inactive: 0 | inactive: 0 | inactive: 0 | inactive: 0 | inactive: 0 | inactive: 0 | inactive: 0 | inactive: 0
22 | Nc1ncnc2c1c(-c1ccc(Oc3ccccc3)cc1)cn2C1CCCC1 (2.5 µM) | inactive: 0 | inactive: 0 | inactive: 0 | inactive: 0 | inactive: 0 | inactive: 0 | inactive: 0 | inactive: 0 | inactive: 0 | inactive: 0
23 | CCOc1ccn(-c2ccc(F)cc2)c(=O)c1C(=O)Nc1ccc(Oc2ccnc(N)c2Cl)c(F)c1 (10 µM) | active: 1 | inactive: 0 | inactive: 0 | inactive: 0 | inactive: 0 | inactive: 0 | inactive: 0 | inactive: 0 | inactive: 0 | inactive: 0
24 | CNc1nc(-c2ccc3c(N)n[nH]c3c2)cc(N2C[C@@H](C(=O)NC3CCCCC3)CC[C@H]2C)n1 (10 µM) | inactive: 0 | inactive: 0 | inactive: 0 | inactive: 0 | inactive: 0 | inactive: 0 | inactive: 0 | inactive: 0 | inactive: 0 | inactive: 0
25 | NC(=O)c1ccc(-c2nc(-c3ccccn3)c(-c3ccc4c(c3)OCO4)[nH]2)cc1 (10 µM) | inactive: 0 | inactive: 0 | inactive: 0 | inactive: 0 | inactive: 0 | inactive: 0 | inactive: 0 | inactive: 0 | inactive: 0 | inactive: 0
26 | CC(C)n1cnc2c(NCc3cccc(C(F)(F)F)c3)ncnc21 [Longdaysin] (10 µM) | inactive: 0 | inactive: 0 | inactive: 0 | inactive: 0 | inactive: 0 | inactive: 0 | inactive: 0 | inactive: 0 | inactive: 0 | inactive: 0
27 | O=C(/C=C/c1ccc(O)c(O)c1)c1ccc(O)cc1O [Butein] (10 µM) | inactive: 0 | inactive: 0 | inactive: 0 | inactive: 0 | inactive: 0 | inactive: 0 | inactive: 0 | inactive: 0 | inactive: 0 | active: 1
28 | Oc1cc(O)cc(/C=C/c2ccc(O)c(O)c2)c1 [Piceatannol] (10 µM) | inactive: 0 | inactive: 0 | inactive: 0 | inactive: 0 | inactive: 0 | inactive: 0 | inactive: 0 | inactive: 0 | inactive: 0 | inactive: 0
29 | COc1cc(OC)c(F)c(COc2cnc(Nc3cnn(CCO)c3)nc2)c1F (2.5 µM) | inactive: 0 | inactive: 0 | inactive: 0 | inactive: 0 | inactive: 0 | inactive: 0 | inactive: 0 | inactive: 0 | inactive: 0 | inactive: 0
30 | COc1cc2c(Nc3ccc(NC(=O)c4ccccc4)cc3)ncnc2cc1OCCCN1CCOCC1 (10 µM) | inactive: 0 | inactive: 0 | inactive: 0 | inactive: 0 | inactive: 0 | inactive: 0 | inactive: 0 | inactive: 0 | inactive: 0 | inactive: 0

3 entries already listed, sorted by length of the SMILES, smallest number first:
Row | SMILES | kinase-Nluc reporter destabilization hit call (CDK7) | kinase-Nluc reporter destabilization hit call (CDK9) | kinase-Nluc reporter destabilization hit call (CHEK2) | kinase-Nluc reporter destabilization hit call (CSF1R) | kinase-Nluc reporter destabilization hit call (CSK) | kinase-Nluc reporter destabilization hit call (CSNK1A1) | kinase-Nluc reporter destabilization hit call (CSNK1D) | kinase-Nluc reporter destabilization hit call (DDR1) | kinase-Nluc reporter destabilization hit call (DYRK1B) | kinase-Nluc reporter destabilization hit call (DYRK2)
12 | COc1cc2ncnc(Nc3cccc(Cl)c3F)c2cc1OC(=O)N1CCN(C)C[C@H]1C [Zorifertinib] (10 µM) | inactive: 0 | inactive: 0 | inactive: 0 | inactive: 0 | inactive: 0 | inactive: 0 | inactive: 0 | inactive: 0 | inactive: 0 | inactive: 0
3 | Cc1cc(F)c(C(=O)Nc2cccc(-c3nncn3C(C)C)n2)cc1-n1cnc(C2CC2)c1 [Selonsertib] (10 µM) | inactive: 0 | inactive: 0 | inactive: 0 | inactive: 0 | inactive: 0 | inactive: 0 | inactive: 0 | inactive: 0 | inactive: 0 | inactive: 0
23 | CCOc1ccn(-c2ccc(F)cc2)c(=O)c1C(=O)Nc1ccc(Oc2ccnc(N)c2Cl)c(F)c1 (10 µM) | active: 1 | inactive: 0 | inactive: 0 | inactive: 0 | inactive: 0 | inactive: 0 | inactive: 0 | inactive: 0 | inactive: 0 | inactive: 0
